These are literature values, as cited in patent publication US9199026B2, “Modular extracorporeal systems and methods for treating blood-borne diseases” (SOMERSET GROUP ENTERPRISES, INC., priority 2011, dated 2015).

The conditions of this series: no group stated.

One may read the pKa as the pH at which an ionisable group is half protonated. As to `CCC[C@@H]1C[C@@H](C(=O)N[C@@H]([C@H]2O[C@H](SC)[C@H](O)[C@@H](O)[C@H]2O)[C@H](C)Cl)N(C)C1` [Clindamycin], the pKa was 7.5.
